Values quoted from earlier work as cited in patent publication US6218367A, “Paclitaxel-carbohydrate conjugates: design, synthesis and biological evaluations” (Organomed Corporation, priority 1999, dated 2001).
Converted amounts (≈) assume the structure as drawn. “Also recorded” adds a separate entry of the source.

Conditions: cited from earlier work

SMILES: CC(=O)O[C@H]1C(=O)[C@@]2(C)[C@H]([C@H](OC(=O)c3ccccc3)[C@]3(O)C[C@H](OC(=O)[C@H](O)[C@@H](NC(=O)c4ccccc4)c4ccccc4)C(C)=C1C3(C)C)[C@]1(OC(C)=O)CO[C@@H]1C[C@@H]2O [paclitaxel]
- water solubility (in words) (in water): extremely insoluble in water; also recorded: very low solubility in water
- water solubility (reported solubility (Vyas et al., 1993)): 0.25 µg/mL (≈ 0.293 µM)
